In assay [1] the target is T1, Sqt1.53C (yeast two-hybrid fusion) (S. cerevisiae) (UniProt P35184).
T1 sequence: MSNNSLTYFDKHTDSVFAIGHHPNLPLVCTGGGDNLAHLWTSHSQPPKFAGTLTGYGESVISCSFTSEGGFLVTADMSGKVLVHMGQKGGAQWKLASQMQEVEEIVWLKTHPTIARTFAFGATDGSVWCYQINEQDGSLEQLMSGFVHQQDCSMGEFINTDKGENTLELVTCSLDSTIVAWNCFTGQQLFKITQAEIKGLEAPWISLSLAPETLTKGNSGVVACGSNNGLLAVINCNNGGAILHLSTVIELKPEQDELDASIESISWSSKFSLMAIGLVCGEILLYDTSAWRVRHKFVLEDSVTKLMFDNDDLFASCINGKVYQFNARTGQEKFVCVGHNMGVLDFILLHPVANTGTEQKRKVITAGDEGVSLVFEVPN
The assay can be described thus: two-hybrid; bait fused to the Gal4 DNA-binding domain, prey to the Gal4 activation domain, reporter strain PJ69-4A; HIS3 and ADE2 reporters, plates 3 days at 30 °C.

The target of assay [2] is T2, Sqt1 D420K (yeast two-hybrid fusion) (S. cerevisiae) (UniProt P35184).
T2 sequence: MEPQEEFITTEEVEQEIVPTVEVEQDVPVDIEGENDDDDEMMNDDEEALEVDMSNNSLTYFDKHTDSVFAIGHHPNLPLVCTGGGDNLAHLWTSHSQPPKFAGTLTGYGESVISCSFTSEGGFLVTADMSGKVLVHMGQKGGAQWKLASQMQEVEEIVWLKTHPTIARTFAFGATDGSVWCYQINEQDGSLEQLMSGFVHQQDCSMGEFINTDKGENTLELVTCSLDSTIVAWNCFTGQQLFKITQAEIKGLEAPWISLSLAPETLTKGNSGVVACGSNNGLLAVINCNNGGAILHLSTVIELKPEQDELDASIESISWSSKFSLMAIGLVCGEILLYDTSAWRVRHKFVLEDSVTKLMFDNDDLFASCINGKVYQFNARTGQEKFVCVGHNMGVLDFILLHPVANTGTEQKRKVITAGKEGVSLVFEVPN
The assay is described as above.

Assay [3] concerns the target T3, Sqt1 Glu315 to lysine (yeast two-hybrid fusion) (S. cerevisiae) (UniProt P35184).
T3 sequence: T2 sequence with E315K, K420D
The description is as above.

Assay [4] has as its target T4, Sqt1 E315A (yeast two-hybrid fusion) (S. cerevisiae) (UniProt P35184).
T4 sequence: T2 sequence with E315A, K420D
The assay is described as above.

The target in assay [5] is T5, Sqt1 E110K (yeast two-hybrid fusion) (S. cerevisiae) (UniProt P35184).
T5 sequence: T2 sequence with E110K, K420D
Described as above.

The target of assay [6] is T6, Sqt1 (yeast two-hybrid fusion) (S. cerevisiae) (UniProt P35184).
T6 sequence: T2 sequence with K420D
Described as above.

The target of assay [7] is T7, Sqt1 E156K (yeast two-hybrid fusion) (S. cerevisiae) (UniProt P35184).
T7 sequence: T2 sequence with E156K, K420D
The assay is described as above.

The target of assay [8] is T8, ScSqt1.53C (co-expressed with Rpl10(1–20)-(His)6 for the co-structure) (S. cerevisiae) (UniProt P35184).
T8 sequence: T1 sequence
The assay can be described thus: crystal structure; complex co-expressed in E. coli, co-purified via Rpl10(1–20)-(His)6 by Ni-affinity and size-exclusion chromatography; sitting-drop vapor diffusion at 291 K; both purified. Background: Size exclusion chromatography separates by hydrodynamic size, large species first.

For assay [9], the target named is T9, NTAP-Rrb1 (S. cerevisiae) (UniProt Q04225).
T9 sequence: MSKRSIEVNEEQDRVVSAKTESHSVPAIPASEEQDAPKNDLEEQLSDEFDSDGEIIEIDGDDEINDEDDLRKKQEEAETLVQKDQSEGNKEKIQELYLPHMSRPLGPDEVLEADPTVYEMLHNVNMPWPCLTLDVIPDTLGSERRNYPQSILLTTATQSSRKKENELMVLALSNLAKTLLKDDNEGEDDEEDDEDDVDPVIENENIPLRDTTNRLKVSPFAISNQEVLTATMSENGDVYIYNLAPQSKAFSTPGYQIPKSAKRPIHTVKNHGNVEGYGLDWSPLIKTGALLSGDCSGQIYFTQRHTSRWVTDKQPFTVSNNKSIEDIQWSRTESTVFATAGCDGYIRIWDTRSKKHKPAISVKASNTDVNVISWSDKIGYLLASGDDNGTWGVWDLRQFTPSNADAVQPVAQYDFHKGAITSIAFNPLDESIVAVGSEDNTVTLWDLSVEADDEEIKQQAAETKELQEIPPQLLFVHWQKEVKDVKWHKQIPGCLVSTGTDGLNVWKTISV
The assay can be described thus: affinity purification of a TAP-tagged bait from yeast cells (in vivo co-purification); Sqt1-TAP or NTAP-Rrb1 bait; yEGFP fusions or 2xHA-tagged ribosomal proteins as prey; Supplementary Fig. 3b,c, methods not shown.

The target of assay [10] is T10, Rrb1 (yeast two-hybrid fusion) (S. cerevisiae) (UniProt Q04225).
T10 sequence: T9 sequence
The assay can be described thus: two-hybrid; bait fused to the Gal4 DNA-binding domain, prey to the Gal4 activation domain, reporter strain PJ69-4A; HIS3 and ADE2 reporters, plates 3 days at 30 °C.

Assay [11] concerns the target T11, Rrb1.60C (yeast two-hybrid fusion) (S. cerevisiae) (UniProt Q04225).
T11 sequence: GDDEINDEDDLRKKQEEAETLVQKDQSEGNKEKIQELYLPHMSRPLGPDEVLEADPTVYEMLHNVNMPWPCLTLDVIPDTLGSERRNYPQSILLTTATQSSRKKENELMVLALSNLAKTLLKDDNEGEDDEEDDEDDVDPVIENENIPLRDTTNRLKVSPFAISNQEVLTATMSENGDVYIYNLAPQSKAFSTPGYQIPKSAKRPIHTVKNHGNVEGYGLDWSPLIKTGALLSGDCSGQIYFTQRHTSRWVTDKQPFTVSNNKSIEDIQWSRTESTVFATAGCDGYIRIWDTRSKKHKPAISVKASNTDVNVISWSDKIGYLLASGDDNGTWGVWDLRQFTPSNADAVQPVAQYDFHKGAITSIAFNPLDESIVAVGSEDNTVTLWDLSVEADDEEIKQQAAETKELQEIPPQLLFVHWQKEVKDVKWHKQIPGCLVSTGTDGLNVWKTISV
The description is as above.

Substitutions are numbered along the chain they refer to. Results are given in words; binding and its absence hold for the method and conditions named. Some binding calls cover weakened binding; strength is not graded here. Tags and fused reporters may be left off the sequences shown.

The values below come from article PMC4491177, “Co-translational capturing of nascent ribosomal proteins by their dedicated chaperones” (Nature Communications, 2015).

B1: Rpl10 (yeast two-hybrid fusion) (protein, UniProt P41805 1-221)
chain: MARRPARCYRYQKNKPYPKSRYNRAVPDSKIRIYDLGKKKATVDEFPLCVHLVSNELEQLSSEALEAARICANKYMTTVSGRDAFHLRVRVHPFHVLRINKMLSCAGADRLQQGMRGAWGKPHGLAARVDIGQIIFSVRTKDSNKDVVVEGLRRARYKFPGQQKIILSKKWGFTNLDRPEYLKKREAGEVKDDGAFVKFLSKKGSLENNIREFPEYFAAQA
Turning to B1, the binding result is given as “binds” in assay [1]; “binds” in assay [2]; “no binding” in assay [3]; “binds” in assay [4]; “binds” in assay [5]; “binds” in assay [6]. Further, the binding entry in assay [7] is recorded as “binds”.

B2: Rpl10(1–20)-(His)6 (peptide)
chain: MARRPARCYRYQKNKPYPKS
Consider B2, for which the binding entry in assay [8] was “binds”.

B3: L3-N (amino acids 1–23) yEGFP fusion protein (peptide, UniProt P14126 1-23)
chain: MSHRKYEAPRHGHLGFLPRKRAA
As for B3, the binding entry in [9] is recorded as “binds”.

B4: Rpl3 amino acids 1–15 (yeast two-hybrid fusion) (domain or fragment, UniProt P14126 1-15)
chain: MSHRKYEAPRHGHLG
In the case of B4, the binding entry in [10] and in [11] was “binds” in each case.
